By AC50 is commonly meant the midpoint of the concentration-response curve, whichever way the signal moves.

Drawing on PubChem BioAssay AID662 (National Center for Advancing Translational Sciences (NCATS), 2007), this text covers AC50 for 68 compounds.

The list shows a part of the results. The main result of the screen is listed elsewhere. These columns were measured beside it and carry no call. The list favours compounds with an active or inconclusive main result. Words in brackets tell the shape of the fitted curve; partial curves, single points and poor fits give uncertain potencies.

The test can be described thus: Cell signaling CRE-BLA (Fsk stim). The note with it: CHO CRE-bla reporter (cAMP response element driving beta-lactamase), forskolin EC10, beta-lactamase ratio; measured here: 460 nm blue channel. In outline: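 qHTS titration format; CRE-bla CHO reporter; stimulus EC10 NKH 477, a water-soluble forskolin. Read: CCF4 460/530 nm ratio. Potency expressed as AC50 for activators or inhibitors.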
For `CCOc1ccc(Br)cc1/C=N/O`, the AC50 was 0.398 µM [rising, full curve].

Regarding `COC(=O)c1ccc(CSc2nc3ccccc3s2)o1`, the AC50 was 12.6 µM [rising, single point].

In the case of `CC(C)Oc1ccccc1C1CC(=O)Nc2cc3c(cc21)OCO3` (stereo not drawn), the AC50 is 5.01 µM [rising, partial curve].

As to `COc1ccc(C2C=C(C)Nc3nc(SC)nn32)cc1` (stereo not drawn), the AC50 is 10 µM [rising, partial curve].

Consider `COc1ccccc1-c1ccc2ncnc(NCc3cnc(C)cn3)c2c1`, for which the concentration at half-maximal activity (AC50) was 6.31 µM [rising, partial curve].

For the compound `Cc1ccc(OCc2nnc(SCC(=O)c3ccccc3)n2Cc2ccco2)cc1`, the concentration at half-maximal activity (AC50) was 25.1 µM [falling, single point].

For `COc1ccc(-c2nc3cnc(N(C)C)nc3n(Cc3ccc(F)cc3)c2=O)cc1`, the AC50 was 1.58 µM [rising, full curve].

Consider `CCOC(=O)c1c(NC(=O)c2ccn(CC)n2)sc2c1CCCC2`, for which the AC50 is 5.01 µM [rising, partial curve].

Take `CCOC(=O)C1CCN(C(=O)CSc2cc(=O)n(CC)c3ccccc23)CC1`: the AC50 is 0.0794 µM [falling, full curve, poor fit].

For `Cc1ccc(S(=O)(=O)Nc2ccc(NC(=O)CN3CCCCC3)cc2)cc1`, the AC50 was 0.00316 µM [falling, full curve, poor fit].

Regarding `CCCCn1c(SCc2ncc(-c3ccccc3)o2)nc2cc(S(N)(=O)=O)ccc21`, the AC50 is 12.6 µM [rising, single point].

Turning to `CCN(CC(=O)NCCc1ccc(S(N)(=O)=O)cc1)Cc1nc2ccccc2c(=O)[nH]1`, the AC50 is 0.794 µM [rising, full curve].

Take `O=c1cc(N2CCc3ccccc3C2)[nH]c(=O)n1-c1ccc(Br)cc1`: the AC50 was 1.26 µM [falling, partial curve, poor fit].

Regarding `COCCn1c(=S)[nH]c2cc(C(=O)N3CCc4ccccc43)ccc2c1=O`, the AC50 is 25.1 µM [rising, single point].

On to `COc1ccc(C(=O)c2no[n+]([O-])c2C(=O)c2ccc(OC)cc2)cc1`, for which the AC50 is 12.6 µM [falling, partial curve].

Take `Cc1cc(C(=O)CN2C(=O)NC(Cc3c[nH]c4ccccc34)C2=O)c(C)n1C` (stereo not drawn): the AC50 is 0.794 µM [falling, full curve].

As to `CCCN(CCC(=O)Nc1ccccc1F)CC1CC1`, the AC50 was 0.398 µM [rising, full curve].

For `CCOc1ccc2[nH]c(=O)c(CN(Cc3cccs3)Cc3nnnn3C(C)(C)CC)cc2c1`, the AC50 is 15.8 µM [falling, partial curve].

Consider `NCCC[C@@H](CC(=O)N[C@@H]1CCNC[C@H]1C(=O)N[C@H](CC(=O)N[C@@H](CCC(=O)O)CC(=O)O)Cc1c[nH]c2ccccc12)NC(=O)C[C@H](CO)NC(=O)[C@@H]1CCCC[C@H]1N`, for which the concentration at half-maximal activity (AC50) was 10 µM [falling, partial curve].

As for `COc1ccc(C(C)=O)c(OC(=O)c2ccc(OC)c(OC)c2)c1`, the AC50 is 5.01 µM [rising, partial curve].

With `CCOc1cc(C)c(Cl)cc1S(=O)(=O)n1nnc2ccccc21`, the AC50 is 12.6 µM [falling, partial curve].

With `Cc1ccc(-c2c3c(=O)n(C)c(=O)n(C)c3cn2Cc2ccccn2)cc1`, the AC50 is 3.98 µM [falling, partial curve].

Turning to `Cc1cccc2cc3c(NC(=O)C(C)C)nn(C)c3nc12`, the AC50 was 2.51 µM [rising, full curve].

On to `COCCNC(=O)Cc1cn(C)c2ccccc12`, for which the AC50 is 0.00316 µM [falling, full curve, poor fit].

As for `Cc1ccc(/C=c2\s/c(=C(/C#N)C(=O)N3CCCC3)n(Cc3ccco3)c2=O)s1`, the AC50 is 5.01 µM [rising, single point].

On to `c1ccc2c(c1)oc1c(N3CCOCC3)ncnc12`, for which the AC50 is 5.01 µM [falling, partial curve].

As for `Cc1ccc(C(=O)CSc2nnc(-c3ccco3)n2CC2CCCO2)cc1` (stereo not drawn), the AC50 was 20 µM [falling, single point].

Take `O=C(c1ccc(Br)s1)N1CCN(Cc2ccc3c(c2)OCO3)CC1`: the AC50 was 0.00316 µM [falling, full curve, poor fit].

In the case of `CCOC(=O)c1c(C)[nH]c(C(=O)OCc2c(C)noc2C)c1C`, the AC50 is 3.98 µM [rising, full curve].

For the compound `COc1ccc(N(CC(=O)Nc2ccc(OC)c(Cl)c2)S(=O)(=O)c2c(C)noc2C)cc1`, the AC50 was 3.16 µM [falling, single point].

As for `Oc1c(C(Nc2ccccn2)c2ccccn2)ccc2cccnc12` (stereo not drawn), the AC50 was 2.51 µM [rising, full curve].

`Cc1ccccc1Cn1cc(NC(=O)c2cc(-c3cccs3)on2)cn1`: the AC50 was 15.8 µM [falling, partial curve].

As for `CCOC(=O)N1CCC(NC(=O)c2ccc3c(c2)ncn3C2CCCC2)CC1`, the AC50 was 10 µM [rising, single point].

On to `Brc1cnc(N2CCCC2)nc1N1CCOCC1`, for which the AC50 was 25.1 µM [rising, single point].

As for `Cc1c(C(=O)NCC2CCCO2)sc2nc(-c3ccc(F)cc3)cn12` (stereo not drawn), the AC50 was 7.94 µM [rising, partial curve].

As to `O=C(CSc1oc(-c2ccco2)nc1S(=O)(=O)c1ccccc1)NCC1CCCO1` (stereo not drawn), the AC50 was 0.00398 µM [falling, full curve, poor fit].

Regarding `Cc1ccc(NC(=O)CSC(N)=O)cc1Cl`, the AC50 is 12.6 µM [falling, single point].

For the compound `COCCNC(=O)c1ccccc1NC(=O)c1ccc(OC)c(OC)c1`, the AC50 was 10 µM [rising, partial curve].

With `COc1ccc(Br)cc1-c1nc(C)c(C(C)=O)n1O`, the AC50 is 0.631 µM [falling, single point].

For `COc1ccc(COn2c(=O)c(C)[n+]([O-])c3ccccc32)cc1OC`, the AC50 is 10 µM [rising, partial curve].

In the case of `C=CCn1c(SCc2nc3c(c(=O)[nH]c(=O)n3CCCC)n2CCC)nnc1-c1ccccc1`, the AC50 is 3.98 µM [rising, full curve].

In the case of `O=C(c1cccnc1)N1CCCc2ccccc21`, the AC50 is 0.00316 µM [falling, full curve, poor fit].

Consider `O=C(Oc1ccc2c(c1)OCO2)c1ccncc1`, for which the AC50 is 5.01 µM [falling, partial curve].

Regarding `CCCCN1CCCCC1C(=O)Nc1c(C)cc(C)cc1C` (stereo not drawn), the concentration at half-maximal activity (AC50) was 31.6 µM [falling, partial curve].

`CCCCCCCCCCCCOS(=O)(=O)O`: the AC50 was 25.1 µM [falling, single point].

Regarding `COc1ccc(CCNC(=O)Cc2cc(=O)[nH]c(=O)[nH]2)cc1OC`, the AC50 was 5.01 µM [rising, single point].

Take `CN1CCN(c2ncc3nc(-c4cccs4)c(=O)n(CCc4ccccc4)c3n2)CC1`: the AC50 is 2.51 µM [rising, full curve].

`COc1ccc(OC(C)C(=O)N2CCN(c3ccccn3)CC2)cc1` (stereo not drawn): the AC50 was 15.8 µM [rising, single point].

Take `C=CCn1c(C)cc(C(=O)CSc2nc3ccccc3c(=O)[nH]2)c1C`: the AC50 was 10 µM [rising, single point].

As to `Cc1cc(C)n2nc(SCC(=O)N(C(C)C)C(C)C)nc2n1`, the AC50 was 2.51 µM [rising, full curve, poor fit].

Take `Cc1ccc(NC(=O)NC(=O)CN2C(=O)NC3(CCCCCCC3)C2=O)c(C)c1`: the AC50 was 25.1 µM [rising, single point].

Take `O=C(O)COc1ccc2c(c1)CCCC2`: the AC50 was 0.00398 µM [falling, full curve, poor fit].

For the compound `COc1ccccc1-c1ccc2ncnc(N(C)C)c2c1`, the AC50 was 3.16 µM [rising, full curve].

`Cc1nc2sc(C(c3ccco3)N3CCN(c4ccc(F)cc4)CC3)c(O)n2n1` (stereo not drawn): the AC50 is 1.26 µM [rising, full curve].

Consider `Cc1cccc(CNc2cc(-c3cccc(NS(C)(=O)=O)c3)ncn2)c1`, for which the AC50 was 3.16 µM [rising, full curve].

With `CCCCOc1ccc(-c2nnn(CCC(=O)N3CCOCC3)n2)cc1`, the AC50 is 10 µM [rising, single point].

Consider `CSC1=NC(NCCCO)c2c(sc3c2CC(C)(C)OC3)N1` (stereo not drawn), for which the AC50 is 12.6 µM [rising, partial curve].

With `Cc1ccc(C)c(Cn2nnc3c(=O)[nH]c(C4CCCN(C(=O)C5CCCCC5)C4)nc32)c1` (stereo not drawn), the AC50 is 15.8 µM [rising, single point].

On to `COC(=O)c1cc2oc3ccccc3c2n1Cc1ccccn1`, for which the AC50 was 25.1 µM [rising, single point].

As to `CCn1nc(NC(=O)c2ccncc2)c2cc3cccc(C)c3nc21`, the AC50 is 2.51 µM [rising, full curve].

Turning to `N#C/C(=C\c1ccc(O)c(O)c1)C(N)=O`, the AC50 was 31.6 µM [rising, single point].

Turning to `Cn1c(=O)n(Cc2ccccc2)c(=O)c2c1nc1n2CCS1`, the AC50 is 12.6 µM [rising, partial curve].

With `CC(=O)NC(CCS(C)(=O)=O)C(=O)Nc1nccs1` (stereo not drawn), the AC50 was 2.51 µM [falling, partial curve].

As to `CCOC(=O)C(C(C)=O)c1nc(C)nc2c1nnn2Cc1ccccc1Cl` (stereo not drawn), the AC50 was 10 µM [rising, partial curve].

With `c1ccc(CCc2nn3c(Cn4nnc5ccccc54)nnc3s2)cc1`, the AC50 was 10 µM [rising, single point].

`CCc1ccc2oc(=O)cc(CN3CCN(CCO)CC3)c2c1`: the AC50 is 1 µM [rising, single point].

As to `OCCN1CCN(c2nc(-c3ccccc3)nc3c2oc2ccccc23)CC1`, the AC50 was 10 µM [rising, single point].

With `C=CCc1cccc2cc(C(=O)N(C)C)c(=O)oc12`, the AC50 is 0.01 µM [falling, full curve, poor fit].
